These are yes or no findings as the source states them, for the method shown. In cells and extracts the contact can be indirect. Some entries that bind do so weakly or less than the wild type.
Target: Flag-tagged WT Mcl-1 (UniProt Q07820)
Assay: GST pull-down after co-transfection with Flag-tagged WT Mcl-1

Amino acid sequences for entries named in this document (tags omitted). A change or cut given only in a name is not applied to a line headed by its entry.
UniProt Q07820: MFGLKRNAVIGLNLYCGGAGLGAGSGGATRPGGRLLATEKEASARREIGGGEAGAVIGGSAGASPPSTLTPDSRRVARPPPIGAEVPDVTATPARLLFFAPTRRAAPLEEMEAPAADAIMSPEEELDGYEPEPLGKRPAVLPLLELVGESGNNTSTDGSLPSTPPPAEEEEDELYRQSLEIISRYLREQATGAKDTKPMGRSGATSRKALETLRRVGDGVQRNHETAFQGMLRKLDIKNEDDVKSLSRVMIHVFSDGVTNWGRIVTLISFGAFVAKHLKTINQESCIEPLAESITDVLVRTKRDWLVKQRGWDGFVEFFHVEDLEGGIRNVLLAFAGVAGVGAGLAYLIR
UniProt P31749: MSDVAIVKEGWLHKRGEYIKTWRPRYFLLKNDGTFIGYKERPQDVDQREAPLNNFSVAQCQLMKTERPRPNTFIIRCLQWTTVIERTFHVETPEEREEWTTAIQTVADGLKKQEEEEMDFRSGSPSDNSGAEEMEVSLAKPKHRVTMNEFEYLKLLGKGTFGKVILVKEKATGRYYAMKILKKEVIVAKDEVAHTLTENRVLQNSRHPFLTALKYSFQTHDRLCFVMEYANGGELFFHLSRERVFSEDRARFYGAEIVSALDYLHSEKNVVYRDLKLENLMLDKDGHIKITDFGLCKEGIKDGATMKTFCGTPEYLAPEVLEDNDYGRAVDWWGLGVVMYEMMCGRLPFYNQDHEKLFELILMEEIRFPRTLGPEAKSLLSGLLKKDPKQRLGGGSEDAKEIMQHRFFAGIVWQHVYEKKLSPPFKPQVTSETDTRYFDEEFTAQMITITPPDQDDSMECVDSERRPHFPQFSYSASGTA

| Substance | binding |
| --- | --- |
| GST-tagged Akt 8 (WT) (from UniProt P31749 1-480) (enzyme) | binds |
| GST-tagged Akt deletion mutant 1 (GST-PH domain) (from UniProt P31749 4-111) | binds |
